No constants are given. Whether binding was seen depends on the method and setting. Binding seen in cells or lysates may run through a third protein. Here binding means that the protein was enriched with, or labelled near, the bait; the list need not be complete. No binding means not detected with the bait. Tags and fused reporters may be left off the sequences shown.
Target: T1, Flag-REST, overexpressed in HEK293T cells (UniProt Q13127)
T1 sequence: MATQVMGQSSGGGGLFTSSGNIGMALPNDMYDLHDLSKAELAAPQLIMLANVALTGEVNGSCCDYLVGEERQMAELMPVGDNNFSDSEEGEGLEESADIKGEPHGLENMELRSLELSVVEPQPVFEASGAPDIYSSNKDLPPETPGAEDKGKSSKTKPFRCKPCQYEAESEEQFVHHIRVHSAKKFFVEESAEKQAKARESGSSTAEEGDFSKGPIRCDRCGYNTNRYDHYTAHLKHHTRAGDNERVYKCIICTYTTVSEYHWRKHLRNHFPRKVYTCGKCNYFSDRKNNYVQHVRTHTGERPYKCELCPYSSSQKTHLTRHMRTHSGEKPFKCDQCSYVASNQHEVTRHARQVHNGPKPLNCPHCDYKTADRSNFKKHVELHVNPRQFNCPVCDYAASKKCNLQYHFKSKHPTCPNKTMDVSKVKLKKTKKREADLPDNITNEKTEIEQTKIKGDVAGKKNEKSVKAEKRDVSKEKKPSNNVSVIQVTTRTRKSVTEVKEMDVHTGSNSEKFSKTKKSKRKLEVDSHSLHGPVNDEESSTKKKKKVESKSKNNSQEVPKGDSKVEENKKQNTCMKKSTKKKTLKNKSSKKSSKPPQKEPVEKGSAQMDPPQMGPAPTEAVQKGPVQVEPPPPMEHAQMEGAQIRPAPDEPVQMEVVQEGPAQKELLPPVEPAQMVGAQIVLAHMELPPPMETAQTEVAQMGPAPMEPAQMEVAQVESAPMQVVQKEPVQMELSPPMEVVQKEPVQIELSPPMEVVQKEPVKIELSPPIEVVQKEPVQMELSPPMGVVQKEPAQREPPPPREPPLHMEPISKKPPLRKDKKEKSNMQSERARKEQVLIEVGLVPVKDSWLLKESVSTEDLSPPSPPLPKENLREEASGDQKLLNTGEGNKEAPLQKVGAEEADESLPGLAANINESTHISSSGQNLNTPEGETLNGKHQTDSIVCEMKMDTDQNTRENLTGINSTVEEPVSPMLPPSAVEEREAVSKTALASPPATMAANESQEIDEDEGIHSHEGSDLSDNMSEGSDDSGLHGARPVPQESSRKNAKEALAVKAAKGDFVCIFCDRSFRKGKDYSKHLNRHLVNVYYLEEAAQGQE
Experiment: affinity purification with mass spectrometry; Flag-REST overexpressed in WT and SIRT6 KO HEK293T cells; immunoprecipitated on Flag beads; samples separated by SDS gel electrophoresis; triplicates; empty vector as control

The chains behind the UniProt entries cited, without tags or fusion partners.
UniProt Q8N6T7: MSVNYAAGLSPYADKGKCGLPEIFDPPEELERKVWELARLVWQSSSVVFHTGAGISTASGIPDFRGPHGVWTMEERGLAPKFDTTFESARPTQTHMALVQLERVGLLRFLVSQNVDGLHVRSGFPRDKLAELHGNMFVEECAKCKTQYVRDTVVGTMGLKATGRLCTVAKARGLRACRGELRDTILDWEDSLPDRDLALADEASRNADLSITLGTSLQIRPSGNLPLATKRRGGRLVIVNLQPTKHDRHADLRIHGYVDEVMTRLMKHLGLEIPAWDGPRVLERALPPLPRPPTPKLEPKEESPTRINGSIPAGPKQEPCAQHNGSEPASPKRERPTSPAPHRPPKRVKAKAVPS

Substance: SIRT6 (from UniProt Q8N6T7 1-355) (enzyme)
- binding: no binding

— publication PMC11543946
